Measured values taken from the supplement of paper PMC5949888.
± gives the standard deviation of the averaged measurements. Most values lie at the floor of the assay. Slopes are relative: functional sequences can read slightly below zero.

system: Saccharomyces cerevisiae PS128 hsf1 delta, HSF1(1-493) fusion; assay: growth estimate (transactivation domain function in HSF1 fusion, heat-shock survival) (a.u. (slope of normalised read count over time)); higher = stronger growth at 37°C, i.e. more transactivation activity; details: library: random library

| Substance | growth estimate |
| --- | --- |
| SCD | < -0.25 |
| SKLLKAPLIVLLVR | < -0.25 |
| FVKGP | < -0.25 |
| HGCVLRSAWGYFSQTYEGSK | < -0.25 |
| KPFRCWVHRPVGMRPKLI | < -0.25 |
| KGVH | < -0.25 |
| CHISLHGIWGNLSIPRPSTG | < -0.25 |
| RGRRIDRAVALNQMVVEWIQ | < -0.25 |
| DNLFILQNGYVYEV | -0.243 |
| NAEAGLETHGLCVHTNLREA | < -0.25 |
| TKQYKMIVPTRILTASALIG | < -0.25 |
| TVGWHHR | < -0.25 |
| RLTLDFIAQRWWRLAP | < -0.25 |
| VVEIPNRCLDKDCTTKSPTR | < -0.25 |
| NGFETK | -0.245 |
| AGVFLSVAICARSGVCDLA | < -0.25 |
| IGVVGIV | < -0.25 |
| AALSTI | < -0.25 |
| ARSLGSP | < -0.25 |
| DLLIAPG | < -0.25 |
| IYGGPISAYYSRGERGGSRQ | < -0.25 |
| EQDLERVRCNKRPPQRLGVM | < -0.25 |
| KSTPGVLVEGGLTMVRAYGG | < -0.25 |
| SWKLPRTLGWG | < -0.25 |
| ALSGRLDGCCQGLDDLARER | < -0.25 |

Another view of some results above.
Substance	growth estimate
RGRRIDRAVALNQMVVEWIQ	< -0.25
DNLFILQNGYVYEV	-0.243
NAEAGLETHGLCVHTNLREA	< -0.25
TKQYKMIVPTRILTASALIG	< -0.25
TVGWHHR	< -0.25
RLTLDFIAQRWWRLAP	< -0.25
VVEIPNRCLDKDCTTKSPTR	< -0.25

Next records:

| Substance | growth estimate |
| --- | --- |
| TGRDEGGRDRIRLFRFNV | < -0.25 |
| DLTLFE | < -0.25 |
| HITTPRALLSTS | < -0.25 |
| LSHVSRSMKRALTECTPVST | < -0.25 |
| VRVGDDCAVVPTLLRIARCQ | < -0.25 |
| RSTRFCFKPRQ | < -0.25 |
| SILEEQLSGLSLLGVIEVAA | < -0.25 |
| GEGERVCVSVISTMRARWSC | < -0.25 |
| RPHLSWASMVVTGCLISLFG | < -0.25 |
| AVELVRVHPPRGLAYIGVSA | < -0.25 |
| LSVKLRSSTVTQLFVNSVRL | < -0.25 |
| LLYGKMDRSKKPKADARISG | < -0.25 |
| PKKTVVRSYR | < -0.25 |
| LYRPG | < -0.25 |
| NMTVFMLFARC | < -0.25 |
| GFVILLVGTHRSVLGFDRAT | < -0.25 |
| QIGESPKTFLAFE | -0.0478 |
| TLPFIRSRDIRHTSSSGVAR | < -0.25 |
| CVVPLGSGFSCRRMIVQVCT | < -0.25 |
| WRINAFRDPAQDYLLRVGAL | < -0.25 |
| NSHYT | < -0.25 |
| SIAW | < -0.25 |
| LGSEI | -0.246 |
| GEPESQTSITAYERVNHAST | < -0.25 |
| PEPMGALCTCLGAPSH | < -0.25 |

| Substance | growth estimate |
| --- | --- |
| LEKSTSRFACDERCFR | < -0.25 |
| MRKGGAAISVLAVMVPTVTK | < -0.25 |
| YWNVVLYTTKRPRRSARPIS | < -0.25 |
| PIGFSPVEIEHCIASGREWF | < -0.25 |
| SLLMRVTTIPAQLAQRTRSF | < -0.25 |
| TFA | < -0.25 |
| VWRSTCRRGQGNGNVTA | < -0.25 |
| QYIA | < -0.25 |
| RLADSQMRTRGR | < -0.25 |
| PPE | < -0.25 |
| RCHIRSGCASAWRRLQRAYA | -0.246 |
| SVTGMLCTAGRAARSNRPSS | < -0.25 |
| FRGNPTAQCQPDQLFQGSAP | < -0.25 |
| RNIRPS | < -0.25 |
| SVS | < -0.25 |
| GVLATLGCSLYYYERAHAMR | < -0.25 |
| SYKGVARRRWHHGKVTTDS | < -0.25 |
| NYFLAMTNRICQ | < -0.25 |
| AAEISCLENACDLVYIDHCG | < -0.25 |
| VWRKLQSVRFASTVP | < -0.25 |
| RGKKGHVSARLPF | < -0.25 |
| GYSTLYLSEATPGNPASLDY | < -0.25 |
| RVGPGEMCFAAGVI | < -0.25 |
| GETAKVSSLVSDLGLSQMPS | < -0.25 |
| KFRITLG | < -0.25 |

| Substance | growth estimate |
| --- | --- |
| PARTGLRTNWAVMGTTSAGG | < -0.25 |
| TLRLYRTKGGSGCALITGSC | < -0.25 |
| DKVKPCRRVVVPRLTE | < -0.25 |
| PARIKRYSRVVWPGNSLNTP | < -0.25 |
| RSPAGCILCRVVFQP | < -0.25 |
| CPPVVY | < -0.25 |
| SRLSQIYR | < -0.25 |
| HERHLGGEEKYLITTNLLS | < -0.25 |
| SLNPGLEENWGAVNVRHV | < -0.25 |
| PVFLVGFLLSESHRTRLPGP | < -0.25 |
| RSHYSIGVETNTVATSTDDS | < -0.25 |
| FRRMVR | < -0.25 |
| GHNTADRSGSKQETRRWYSL | -0.181 |
| VHSAATPGLS | < -0.25 |
| PTSLTPYAIGQWWLLCIEKN | < -0.25 |
| HWDRWERLSPLWRRHGLNT | < -0.25 |
| DRAQKNDVPWDGQRGWT | < -0.25 |
| FGRWDGTIPVISNLGIHGPP | < -0.25 |
| RRG | -0.2496 ± 0.00081 |
| QIDLVLDALELNY | < -0.25 |
| HVVQVMNPPMVSSMRALRLG | < -0.25 |
| TTIVPVGEVFV | -0.189 |
| LSALRSLTSGVFVQRAALAQ | < -0.25 |
| ASEGARAHKPLVWVSGGLLQ | < -0.25 |
| RRLPVPAN | < -0.25 |

| Substance | growth estimate |
| --- | --- |
| SDIEQYRTSDGRAHVEF | < -0.25 |
| WYCSVSIPAEV | < -0.25 |
| RWGRGI | < -0.25 |
| FHVICLLI | < -0.25 |
| TCTATLN | < -0.25 |
| CGQYSHAPSSG | -0.243 |
| ETQISIDISSCPVSMDGILG | < -0.25 |
| VVVWSPGRGRATAGSKCVGR | < -0.25 |
| HPRDSCPTPEGLDEVPSAQ | < -0.25 |
| LTVRSR | < -0.25 |
| CWLYLRDELAELVGITAQAA | < -0.25 |
| LSYFWLIWVRG | < -0.25 |
| YHPSGSLFGSIGKDTVPTET | < -0.25 |
| ARPIHKGLGVSVHFIKPKKV | < -0.25 |
| FCCLEVISPPEARWPLTLCQ | < -0.25 |
| NSGQLSHGITSECGRT | < -0.25 |
| RRQDRQDQSEGLGTLHSSGR | < -0.25 |
| RYFTVVT | < -0.25 |
| LSTARSGLPTKSPVLGKPF | < -0.25 |
| RNFQ | -0.25 |
| RSFRLSP | < -0.25 |
| PPSLRPGVQNAVRLEFAWLP | < -0.25 |
| RNLPRGT | < -0.25 |
| RGSMLNVASAISDEAILP | < -0.25 |
| PCV | < -0.25 |

| Substance | growth estimate |
| --- | --- |
| KHCSQ | < -0.25 |
| RCLHSPTGRKRTGFACGCWS | < -0.25 |
| PDAYGFRSRRGRA | < -0.25 |
| PMDAG | < -0.25 |
| HTT | < -0.25 |
| CETGLL | < -0.25 |
| KPTVWLQFLRICPVHSNDGW | < -0.25 |
| QHIRQFTPIQYVTCGFLQLK | < -0.25 |
| FCIGFTMTEVVRFLLSLS | < -0.25 |
| VPAYRASHKPIGP | < -0.25 |
| CCGDAWTKTDGTKGDSPTRK | < -0.25 |
| VSCTRIRALLGACILIRVFT | < -0.25 |
| SRDRT | < -0.25 |
| TGRSPSA | < -0.25 |
| SLHWHRESVNTCAGSKILDP | < -0.25 |
| KMYLLCRTTV | < -0.25 |
| LGRANSSGVF | < -0.25 |
| PRACE | < -0.25 |
| GSKRLHSCARDFSYDAEQVD | < -0.25 |
| LANTCQSFELIKSDLMTSVG | < -0.25 |
| TLATETLR | < -0.25 |

Exported with bars between the fields: entries from further up
Substance | growth estimate
RSFRLSP | < -0.25
PPSLRPGVQNAVRLEFAWLP | < -0.25
RNLPRGT | < -0.25
RGSMLNVASAISDEAILP | < -0.25
